Measurements reported in PubChem BioAssay AID1259254 (NCATS, 2017)
The deposit covers about 59,000 reagents; shown is a random part of them. About 1,550 of all reagents (2.6%) count as active. 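G2 share is only a proxy for re-replication; each gene was hit by three separate siRNAs, and active genes were retested.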 The raw values are shown without normalisation. The numbers tell different reagents against one gene apart. Not given: the amount of reagent.

Purpose: 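Genome-wide screen for genes that prevent DNA re-replication in cancer cells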 (primary screen)
Cells: human HCT116 colorectal cancer cells
Reagent: single siRNA against human genes
Timing: 3 days
Read-out: 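Imaged Hoechst DNA stain sorts each cell into a cycle phase by DNA amount; per plate, G2 fraction set to 0% for non-targeting and 100% for GMNN siRNA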
Reading the numbers: G2 robust z-score and G2 cells, % of GMNN control: higher = more G2 cells, more excess DNA replication; raw share of cells in G2: higher = larger share of cells with G2 DNA content
Active means: 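An siRNA counts as active if its G2 robust z-score lies at least 5 MADs above the screen median; here such calls match roughly 38% of GMNN control or more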

Target gene	reagent	G2 robust z-score	G2 cells, % of GMNN control	raw share of cells in G2 (%)	Outcome
RIPPLY2	1	2.14	18	11	inactive
RIPPLY2	2	-0.764	-2.41	2.34	inactive
RIPPLY2	3	0.154	4.05	4.05	inactive
BLOC1S1	1	1.31	12.2	7.53	inactive
BLOC1S1	2	0.0102	3.04	4.67	inactive
BLOC1S1	3	2.71	22	15.2	inactive
EIF4E3	1	0.317	5.2	6.99	inactive
EIF4E3	2	-0.748	-2.3	3.45	inactive
EIF4E3	3	0.141	3.96	7.61	inactive
RPLP1	1	1.36	12.5	10.3	inactive
RPLP1	2	0.378	5.63	6.44	inactive
RPLP1	3	0.588	7.11	5.92	inactive
EIF3I	1	3.34	26.4	14.2	inactive
EIF3I	2	1.19	11.3	9.68	inactive
EIF3I	3	4.18	32.4	16.6	inactive
PPP1R2P4	1	0.094	3.63	5.32	inactive
PPP1R2P4	2	-0.285	0.962	3.63	inactive
PPP1R2P4	3	0.405	5.82	5.37	inactive
UAP1L1	1	0.0419	3.26	5.47	inactive
UAP1L1	2	2.57	21.1	9.61	inactive
UAP1L1	3	-0.218	1.44	3.38	inactive
OR1A1	1	-0.311	0.78	5.48	inactive
OR1A1	2	-0.607	-1.31	3.38	inactive
OR1A1	3	-0.539	-0.826	3.06	inactive

8 of these entries in another layout.
EIF4E3 #1: G2 robust z-score = 0.317; G2 cells, % of GMNN control = 5.2; raw share of cells in G2 (%) = 6.99; Outcome = inactive
EIF4E3 #2: G2 robust z-score = -0.748; G2 cells, % of GMNN control = -2.3; raw share of cells in G2 (%) = 3.45; Outcome = inactive
EIF4E3 #3: G2 robust z-score = 0.141; G2 cells, % of GMNN control = 3.96; raw share of cells in G2 (%) = 7.61; Outcome = inactive
RPLP1 #1: G2 robust z-score = 1.36; G2 cells, % of GMNN control = 12.5; raw share of cells in G2 (%) = 10.3; Outcome = inactive
RPLP1 #2: G2 robust z-score = 0.378; G2 cells, % of GMNN control = 5.63; raw share of cells in G2 (%) = 6.44; Outcome = inactive
RPLP1 #3: G2 robust z-score = 0.588; G2 cells, % of GMNN control = 7.11; raw share of cells in G2 (%) = 5.92; Outcome = inactive
EIF3I #1: G2 robust z-score = 3.34; G2 cells, % of GMNN control = 26.4; raw share of cells in G2 (%) = 14.2; Outcome = inactive
EIF3I #2: G2 robust z-score = 1.19; G2 cells, % of GMNN control = 11.3; raw share of cells in G2 (%) = 9.68; Outcome = inactive

More results follow:
Target gene	reagent	G2 robust z-score	G2 cells, % of GMNN control	raw share of cells in G2 (%)	Outcome
SEMG2	1	-0.388	0.237	5.07	inactive
SEMG2	2	-0.307	0.807	4.54	inactive
SEMG2	3	-0.709	-2.02	2.62	inactive
MAP3K1	1	-0.511	-0.626	5.4	inactive
MAP3K1	2	-0.822	-2.82	4.46	inactive
MAP3K1	3	-0.798	-2.65	3.09	inactive
DOK6	1	-0.341	0.566	3.78	inactive
DOK6	2	-0.367	0.388	3.26	inactive
DOK6	3	1.39	12.8	7.27	inactive
ACVR2A	1	-0.428	-0.042	5.59	inactive
ACVR2A	2	0.47	6.28	7.53	inactive
ACVR2A	3	-1.03	-4.27	2.52	inactive
KCNJ4	1	-0.141	1.97	5.15	inactive
KCNJ4	2	6.16	46.3	22.1	active
KCNJ4	3	1.15	11.1	8.52	inactive
TUBE1	1	0.555	6.87	9.07	inactive
TUBE1	2	-0.716	-2.07	3.48	inactive
TUBE1	3	-1.03	-4.25	2.17	inactive
CHPT1	1	0.367	5.55	6.65	inactive
CHPT1	2	-0.554	-0.932	6.02	inactive
CHPT1	3	0.871	9.1	7.7	inactive
ZNF511	1	0.647	7.52	7.11	inactive
ZNF511	2	-1.03	-4.25	2.06	inactive
ZNF511	3	0.468	6.26	3.65	inactive
